The list shows a part of the results.
Tests used:
Assay in all cases: log2 fold change, soluble protein after heating vs DMSO (PISA); higher = thermal stabilisation; K562 lysate, 10 uM; active = over 0.2 and 3.5 SD of the protein, either way, in both replicates (recomputed)
[1] = compound: C/C(=N\NC(=O)C1=CC(=CC=C1)S(=O)(=O)N2CCOCC2)/C3=C(C=CC(=C3)Cl)O
Procedure, shortened: (§1)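 Dounce homogenisation of K562 pellets in PBS pH 7.4 with 1 mM MgCl2 produced a crude extract, used at 1 mg/mL protein. Exposure to 10 μM compound lasted 30 min, and aliquots were then heated for 3 min across 48°C-58°C, pooled and brought to 0.5% NP-40 at 4°C. The supernatant after 21,000xg for 90 min was quantified by TMTpro 16plex LC-MS/MS with channel sums equalised. Duplicate values are given as log-two fold change in thermal stability relative to solvent controls.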

The chains behind the UniProt entries cited, without tags or fusion partners. Where a name states a change or a piece, a line headed by the entry shows the natural chain unless it says otherwise.
UniProt P16930: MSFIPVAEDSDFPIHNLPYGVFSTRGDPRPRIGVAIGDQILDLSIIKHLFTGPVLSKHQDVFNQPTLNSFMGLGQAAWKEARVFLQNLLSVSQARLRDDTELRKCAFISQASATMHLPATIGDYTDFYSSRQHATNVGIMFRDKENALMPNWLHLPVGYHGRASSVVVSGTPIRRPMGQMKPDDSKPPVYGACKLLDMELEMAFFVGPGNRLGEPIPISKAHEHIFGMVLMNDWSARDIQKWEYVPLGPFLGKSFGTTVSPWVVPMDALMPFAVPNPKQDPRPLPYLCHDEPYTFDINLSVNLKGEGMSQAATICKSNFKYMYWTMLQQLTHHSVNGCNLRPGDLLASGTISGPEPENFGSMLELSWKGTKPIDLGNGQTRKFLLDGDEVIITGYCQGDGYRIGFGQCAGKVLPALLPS
UniProt Q6NZ36: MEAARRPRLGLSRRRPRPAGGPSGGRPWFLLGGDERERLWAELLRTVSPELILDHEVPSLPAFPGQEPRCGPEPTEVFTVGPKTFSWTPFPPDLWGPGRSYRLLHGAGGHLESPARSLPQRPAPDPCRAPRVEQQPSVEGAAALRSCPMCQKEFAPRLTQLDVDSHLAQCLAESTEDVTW
UniProt Q8IW50: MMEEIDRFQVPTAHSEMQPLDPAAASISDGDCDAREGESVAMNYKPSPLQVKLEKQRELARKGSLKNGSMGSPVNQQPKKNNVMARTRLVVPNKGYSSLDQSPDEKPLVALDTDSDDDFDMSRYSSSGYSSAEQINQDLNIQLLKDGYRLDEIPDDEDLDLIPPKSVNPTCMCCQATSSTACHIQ
EXOC3L2, A0A1C7CYX0, UniProt A0A1C7CYX0, whole entry, looked up: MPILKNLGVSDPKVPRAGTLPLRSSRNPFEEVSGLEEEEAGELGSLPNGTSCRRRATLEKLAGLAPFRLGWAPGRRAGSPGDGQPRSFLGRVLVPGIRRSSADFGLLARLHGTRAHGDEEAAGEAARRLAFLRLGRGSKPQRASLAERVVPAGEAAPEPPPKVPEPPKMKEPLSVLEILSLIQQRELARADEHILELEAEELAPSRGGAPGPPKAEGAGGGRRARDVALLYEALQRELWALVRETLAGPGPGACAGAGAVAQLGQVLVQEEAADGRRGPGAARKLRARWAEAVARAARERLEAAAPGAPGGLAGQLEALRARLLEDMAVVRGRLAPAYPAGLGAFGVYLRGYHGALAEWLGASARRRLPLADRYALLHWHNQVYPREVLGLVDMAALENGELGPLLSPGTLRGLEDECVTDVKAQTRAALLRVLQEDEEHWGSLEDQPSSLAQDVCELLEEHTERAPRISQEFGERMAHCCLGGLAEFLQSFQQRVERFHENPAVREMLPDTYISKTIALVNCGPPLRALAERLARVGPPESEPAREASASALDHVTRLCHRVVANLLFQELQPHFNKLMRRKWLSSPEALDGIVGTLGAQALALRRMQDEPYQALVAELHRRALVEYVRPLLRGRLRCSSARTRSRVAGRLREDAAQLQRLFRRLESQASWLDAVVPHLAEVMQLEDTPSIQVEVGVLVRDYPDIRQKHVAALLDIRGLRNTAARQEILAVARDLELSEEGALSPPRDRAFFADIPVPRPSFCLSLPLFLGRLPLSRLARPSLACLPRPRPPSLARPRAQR
UniProt Q9H790: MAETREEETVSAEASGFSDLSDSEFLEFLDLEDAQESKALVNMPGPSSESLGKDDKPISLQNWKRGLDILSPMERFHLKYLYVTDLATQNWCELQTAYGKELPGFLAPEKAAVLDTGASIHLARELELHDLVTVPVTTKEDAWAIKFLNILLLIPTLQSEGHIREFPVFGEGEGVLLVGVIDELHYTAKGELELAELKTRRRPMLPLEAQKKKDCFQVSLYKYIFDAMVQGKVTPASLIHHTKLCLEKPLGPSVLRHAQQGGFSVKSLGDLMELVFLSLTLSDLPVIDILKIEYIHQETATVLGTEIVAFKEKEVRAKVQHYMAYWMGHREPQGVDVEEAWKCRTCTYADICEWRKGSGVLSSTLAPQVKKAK
UniProt Q5XKK7: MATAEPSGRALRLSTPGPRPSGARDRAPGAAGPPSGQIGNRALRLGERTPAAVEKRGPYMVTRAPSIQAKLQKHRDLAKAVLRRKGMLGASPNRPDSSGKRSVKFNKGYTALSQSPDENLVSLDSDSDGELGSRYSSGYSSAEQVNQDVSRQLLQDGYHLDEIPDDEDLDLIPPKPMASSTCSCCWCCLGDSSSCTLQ
UniProt P00742, whole entry, looked up: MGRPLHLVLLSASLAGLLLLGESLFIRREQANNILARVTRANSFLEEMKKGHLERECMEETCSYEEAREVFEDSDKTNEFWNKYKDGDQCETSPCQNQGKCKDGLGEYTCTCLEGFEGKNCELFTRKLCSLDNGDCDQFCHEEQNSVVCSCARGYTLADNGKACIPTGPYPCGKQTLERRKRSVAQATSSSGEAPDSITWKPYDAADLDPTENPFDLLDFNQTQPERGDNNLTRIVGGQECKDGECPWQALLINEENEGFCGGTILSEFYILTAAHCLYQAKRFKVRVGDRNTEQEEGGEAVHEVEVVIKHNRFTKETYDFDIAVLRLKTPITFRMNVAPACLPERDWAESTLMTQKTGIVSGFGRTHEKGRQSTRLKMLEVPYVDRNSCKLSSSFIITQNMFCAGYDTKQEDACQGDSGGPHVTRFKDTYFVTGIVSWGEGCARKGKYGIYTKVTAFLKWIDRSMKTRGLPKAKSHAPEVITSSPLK
UniProt O95718: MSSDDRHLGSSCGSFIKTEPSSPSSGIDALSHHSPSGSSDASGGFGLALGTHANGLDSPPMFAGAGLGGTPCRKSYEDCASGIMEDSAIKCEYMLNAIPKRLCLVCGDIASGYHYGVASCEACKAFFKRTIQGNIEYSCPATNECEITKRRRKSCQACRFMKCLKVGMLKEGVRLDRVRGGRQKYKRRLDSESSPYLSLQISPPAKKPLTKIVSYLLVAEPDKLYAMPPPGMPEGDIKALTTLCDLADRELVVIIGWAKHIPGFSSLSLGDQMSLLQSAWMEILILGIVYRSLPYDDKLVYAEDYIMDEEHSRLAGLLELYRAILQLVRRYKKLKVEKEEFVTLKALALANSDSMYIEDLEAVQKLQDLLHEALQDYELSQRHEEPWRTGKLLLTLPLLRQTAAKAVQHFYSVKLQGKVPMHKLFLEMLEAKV
UniProt Q7Z309: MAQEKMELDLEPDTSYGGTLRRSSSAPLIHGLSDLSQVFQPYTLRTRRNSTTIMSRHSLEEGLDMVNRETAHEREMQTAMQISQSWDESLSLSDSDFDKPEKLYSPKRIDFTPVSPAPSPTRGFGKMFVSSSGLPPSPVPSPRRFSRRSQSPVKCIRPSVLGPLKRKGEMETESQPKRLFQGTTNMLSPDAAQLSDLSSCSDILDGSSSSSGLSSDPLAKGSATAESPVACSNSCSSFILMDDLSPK
UniProt Q6PEV8: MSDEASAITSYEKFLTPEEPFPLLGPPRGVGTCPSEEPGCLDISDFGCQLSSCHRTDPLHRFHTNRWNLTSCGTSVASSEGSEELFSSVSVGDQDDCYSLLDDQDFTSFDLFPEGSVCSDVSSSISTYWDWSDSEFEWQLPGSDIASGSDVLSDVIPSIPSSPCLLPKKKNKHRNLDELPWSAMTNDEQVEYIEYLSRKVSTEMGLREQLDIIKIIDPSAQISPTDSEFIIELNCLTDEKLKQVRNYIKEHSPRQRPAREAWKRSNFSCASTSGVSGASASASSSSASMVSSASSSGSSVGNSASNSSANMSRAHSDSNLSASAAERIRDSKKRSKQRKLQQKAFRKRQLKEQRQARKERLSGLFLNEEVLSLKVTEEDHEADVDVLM
UniProt P25116: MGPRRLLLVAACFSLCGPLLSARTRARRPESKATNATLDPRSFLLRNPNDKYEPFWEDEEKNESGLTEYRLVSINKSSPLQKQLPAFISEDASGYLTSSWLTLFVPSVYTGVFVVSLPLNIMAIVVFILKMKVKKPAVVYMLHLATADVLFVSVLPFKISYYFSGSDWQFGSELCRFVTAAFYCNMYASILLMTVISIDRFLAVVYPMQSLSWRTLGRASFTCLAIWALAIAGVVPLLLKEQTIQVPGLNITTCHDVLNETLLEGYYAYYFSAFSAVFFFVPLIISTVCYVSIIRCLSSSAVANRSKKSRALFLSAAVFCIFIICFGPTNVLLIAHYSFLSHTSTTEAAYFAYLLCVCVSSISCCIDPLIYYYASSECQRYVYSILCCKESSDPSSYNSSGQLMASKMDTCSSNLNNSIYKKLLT
UniProt Q9NYF3: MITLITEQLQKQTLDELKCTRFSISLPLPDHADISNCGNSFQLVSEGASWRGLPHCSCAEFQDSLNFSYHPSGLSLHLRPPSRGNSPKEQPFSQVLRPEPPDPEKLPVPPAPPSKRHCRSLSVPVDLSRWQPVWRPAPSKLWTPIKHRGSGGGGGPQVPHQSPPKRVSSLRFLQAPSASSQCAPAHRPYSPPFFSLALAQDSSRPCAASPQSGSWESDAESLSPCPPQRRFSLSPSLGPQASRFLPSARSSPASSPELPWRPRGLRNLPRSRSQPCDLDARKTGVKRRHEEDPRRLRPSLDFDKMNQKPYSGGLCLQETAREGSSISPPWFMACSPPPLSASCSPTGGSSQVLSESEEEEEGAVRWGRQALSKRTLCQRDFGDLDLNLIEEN
UniProt Q9NYK6: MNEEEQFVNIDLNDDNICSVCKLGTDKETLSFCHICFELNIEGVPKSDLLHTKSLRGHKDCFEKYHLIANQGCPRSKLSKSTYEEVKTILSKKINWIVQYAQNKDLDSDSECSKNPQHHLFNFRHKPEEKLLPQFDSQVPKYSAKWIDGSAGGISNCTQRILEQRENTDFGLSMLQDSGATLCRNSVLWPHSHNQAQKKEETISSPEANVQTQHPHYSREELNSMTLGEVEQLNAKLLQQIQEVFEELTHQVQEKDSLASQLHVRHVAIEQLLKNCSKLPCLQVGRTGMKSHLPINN
UniProt Q9BQ89: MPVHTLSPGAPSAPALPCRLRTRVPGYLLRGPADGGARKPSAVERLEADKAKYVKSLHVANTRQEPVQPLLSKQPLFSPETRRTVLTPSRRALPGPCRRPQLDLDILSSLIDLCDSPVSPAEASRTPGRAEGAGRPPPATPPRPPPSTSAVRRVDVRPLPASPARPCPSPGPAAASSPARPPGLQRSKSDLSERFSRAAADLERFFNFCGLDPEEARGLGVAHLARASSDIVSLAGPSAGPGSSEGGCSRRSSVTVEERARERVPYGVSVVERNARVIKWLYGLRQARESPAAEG
UniProt O94988: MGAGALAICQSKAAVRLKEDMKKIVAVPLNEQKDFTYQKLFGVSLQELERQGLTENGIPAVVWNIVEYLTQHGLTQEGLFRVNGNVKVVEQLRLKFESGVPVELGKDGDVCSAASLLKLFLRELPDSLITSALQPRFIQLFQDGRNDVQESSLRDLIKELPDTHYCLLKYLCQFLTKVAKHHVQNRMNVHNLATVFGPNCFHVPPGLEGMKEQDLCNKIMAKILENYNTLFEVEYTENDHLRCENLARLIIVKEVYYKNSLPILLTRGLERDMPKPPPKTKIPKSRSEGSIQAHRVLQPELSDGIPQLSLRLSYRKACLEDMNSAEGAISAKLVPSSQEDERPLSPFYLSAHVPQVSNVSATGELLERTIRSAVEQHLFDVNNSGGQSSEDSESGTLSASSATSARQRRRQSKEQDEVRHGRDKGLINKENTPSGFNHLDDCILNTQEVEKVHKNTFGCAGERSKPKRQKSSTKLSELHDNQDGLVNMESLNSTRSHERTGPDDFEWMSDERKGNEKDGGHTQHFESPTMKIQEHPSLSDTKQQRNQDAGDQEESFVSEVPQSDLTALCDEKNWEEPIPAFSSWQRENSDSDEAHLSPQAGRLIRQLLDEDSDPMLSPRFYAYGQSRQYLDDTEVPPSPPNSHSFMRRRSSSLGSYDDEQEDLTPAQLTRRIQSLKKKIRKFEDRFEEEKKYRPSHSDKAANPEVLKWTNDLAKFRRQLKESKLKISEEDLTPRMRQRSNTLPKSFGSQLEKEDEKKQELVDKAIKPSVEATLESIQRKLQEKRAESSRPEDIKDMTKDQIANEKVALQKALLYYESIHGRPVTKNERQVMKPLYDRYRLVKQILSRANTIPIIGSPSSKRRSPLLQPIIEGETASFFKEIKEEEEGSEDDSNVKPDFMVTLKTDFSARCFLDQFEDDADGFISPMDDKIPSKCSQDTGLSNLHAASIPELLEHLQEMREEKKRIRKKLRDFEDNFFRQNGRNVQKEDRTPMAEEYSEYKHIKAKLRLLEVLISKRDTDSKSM
UniProt Q9NVM1: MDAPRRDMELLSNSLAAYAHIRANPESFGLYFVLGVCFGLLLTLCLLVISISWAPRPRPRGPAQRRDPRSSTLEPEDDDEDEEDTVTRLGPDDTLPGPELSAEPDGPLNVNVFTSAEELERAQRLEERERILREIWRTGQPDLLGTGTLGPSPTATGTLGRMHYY

[2] = compound: C1=CC2=C(C=CC(=C2)/C=C\3/C(=O)NC(=NCC4=CC=CS4)S3)N=C1
Procedure, shortened: as §1

[3] = compound: C1=CC2=NC=CN=C2C=C1/C=C/3\C(=O)NC(=O)S3
Procedure, shortened: as §1

[4] = compound: C1=CC=C(C=C1)C2=NC(=C(N2)C3=CC=NC=C3)C4=CC(=C(C=C4)Cl)O
Procedure, shortened: as §1

[5] = compound: C1=CC=C2C(=C1)C3=NNC4=CC=CC(=C43)C2=O
Procedure, shortened: as §1

[6] = compound: C1CCN(C1)C(=O)NC2=CC=CC(=C2)NC3=NC=C(C(=N3)NCCC4=CN=CN4)Br
Procedure, shortened: as §1

[7] = compound: C1CN(CCC1(CC2=CC=C(C=C2)Cl)N)C3=NC=NC4=C3C=CN4
Procedure, shortened: as §1

IRAK-1-4 Inhibitor I = compound: C1COCCN1CCN2C3=CC=CC=C3N=C2NC(=O)C4=CC(=CC=C4)[N+](=O)[O-] [IRAK-1-4 Inhibitor I]
Procedure, shortened: as §1

ibrutinib = compound: C=CC(=O)N1CCC[C@@H](n2nc(-c3ccc(Oc4ccccc4)cc3)c3c(N)ncnc32)C1 [ibrutinib]
Procedure, shortened: as §1

[8] = compound: CC(=O)c1cnc2ccc(-c3cc(Cl)c(O)c(Cl)c3)nc2c1N[C@H]1CC[C@H](CN(C)C)CC1
Procedure, shortened: as §1

ralimetinib = compound: CC(C)(C)Cn1c(N)nc2ccc(-c3[nH]c(C(C)(C)C)nc3-c3ccc(F)cc3)nc21 [ralimetinib]
Procedure, shortened: as §1

[9] = compound: CC(C)(O)CC(=O)NCCn1ccc2ncnc(Nc3ccc(Oc4cccc(C(F)(F)F)c4)c(Cl)c3)c21
Procedure, shortened: as §1

[10] = compound: CC1=C(C(CC(=O)N1)C2=CC=C(C=C2)C(F)(F)F)C(=O)NC3=C(C=C4C(=C3)C=NN4)F
Procedure, shortened: as §1

[11] = compound: CC1=C(C2=C(C=C1)C(=O)C3=CC=CC=C3N2CCCN)C
Procedure, shortened: as §1

[12] = compound: CC1=C(C=C(C=C1)NC(=O)C2=CC(=CC=C2)C(C)(C)C#N)NC3=CC4=C(C=C3)N=CN(C4=O)C
Procedure, shortened: as §1

[13] = compound: CC1=C(C=C(C=C1)NC(=O)C2=CC(=CC=C2)N(C)C)NC(=O)C3=CC=C(C=C3)O
Procedure, shortened: as §1

[14] = compound: CC1=CC=C(C=C1)SC2=C3C=C(SC3=CN=C2)C(=O)N
Procedure, shortened: as §1

erlotinib = compound: C#Cc1cccc(Nc2ncnc3cc(OCCOC)c(OCCOC)cc23)c1 [erlotinib]
Procedure, shortened: as §1

[15] = compound: C1=CC(=CC=C1C2=NC3=C(N2)C=C(C=C3)C(=O)N)OC4=CC=C(C=C4)Cl
Procedure, shortened: as §1

[16] = compound: CC(C)C1=C2N=C(C=C(N2N=C1)NCC3=CC=CC=C3)NCCCCCCN
Procedure, shortened: as §1

Measured: log2 fold change

FAH isoform 2 (UniProt P16930)
inactive: [1] -0.2 | [2] -0.076 | [3] -0.088 | [4] 0.096 | [5] -0.146 | [6] -0.212 | [7] -0.072 | IRAK-1-4 Inhibitor I -0.036 | ibrutinib -0.017 | [8] 0.044 | ralimetinib 0.119 | [9] -0.136 | [10] 0.137 | [11] -0.146 | [12] -0.358 | [13] -0.01 | [14] -0.105

FAAP20 isoform 2 (UniProt Q6NZ36)
inactive: [12] 0.082

FAM219A (UniProt Q8IW50)
inactive: erlotinib 0.139 | [15] 0.192 | [3] 0.053 | [4] -0.067 | [6] 0.027 | [7] 0.251 | IRAK-1-4 Inhibitor I 0.106 | ibrutinib 0.126 | [8] -0.063 | ralimetinib 0.01 | [9] -0.091 | [16] -0.221 | [11] -0.072 | [12] -0.036 | [13] 0.059 | [14] -0.093

EXOC3L2, A0A1C7CYX0
inactive: erlotinib -0.142 | [15] 0.137 | [6] -0.053 | [7] 0.106 | [16] 0.012 | [11] 0.15 | [12] -0.057

EXO5 (UniProt Q9H790)
inactive: erlotinib 0.279 | [15] 0.012 | [3] -0.226 | [4] 0.085 | IRAK-1-4 Inhibitor I -0.028 | ibrutinib 0.111 | ralimetinib 0.018 | [9] -0.126 | [16] -0.025 | [12] 0.217 | [13] -0.067

FAM219B (UniProt Q5XKK7)
inactive: [3] -0.053 | ibrutinib -0.008 | [12] 0.066

F10 (UniProt P00742)
inactive: [3] 0.037 | ibrutinib -0.057

ESRRB isoform 1 (UniProt O95718)
active: [15] -0.783
inactive: erlotinib 0.1 | [3] -0.021 | [4] 0.016 | IRAK-1-4 Inhibitor I 0.236 | ibrutinib -0.047 | ralimetinib 0.035 | [9] -0.087 | [16] -0.187 | [13] 0.053

FAM122B isoform 2 (UniProt Q7Z309)
inactive: [4] 0.029 | IRAK-1-4 Inhibitor I 0.01 | ralimetinib -0.047 | [9] -0.119 | [13] 0.02

F2 (UniProt P00734)
inactive: [3] 0.069 | [4] 0.108 | [6] -0.005 | [7] -0.033 | IRAK-1-4 Inhibitor I 0.056 | ibrutinib 0.078 | [8] 0.009 | ralimetinib -0.049 | [9] 0.106 | [13] -0.234 | [14] -0.079

FAM199X (UniProt Q6PEV8)
inactive: [12] 0.024

F2R (UniProt P25116)
inactive: [12] -0.015

FAM53C (UniProt Q9NYF3)
inactive: erlotinib -0.052 | [15] 0.007 | [3] 0.11 | [4] -0.024 | [6] -0.008 | [7] 0.072 | IRAK-1-4 Inhibitor I 0.036 | ibrutinib 0.016 | [8] -0.074 | ralimetinib 0.004 | [9] 0.004 | [16] 0.004 | [10] 0.181 | [11] -0.022 | [12] -0.044 | [13] -0.012 | [14] 0.052

EURL (UniProt Q9NYK6)
inactive: erlotinib -0.024 | [15] -0.027 | [8] 0.202 | [16] 0.179 | [11] -0.052 | [14] -0.032

FAM110A (UniProt Q9BQ89)
inactive: erlotinib 0.06 | [15] 0.284 | [3] 0.064 | ibrutinib 0.118 | [8] -0.014 | [16] 0.222 | [12] 0.178 | [14] 0.077

Two consecutive entries out of the list so far, for reference:
F2 (UniProt P00734)
inactive: [3] 0.069 | [4] 0.108 | [6] -0.005 | [7] -0.033 | IRAK-1-4 Inhibitor I 0.056 | ibrutinib 0.078 | [8] 0.009 | ralimetinib -0.049 | [9] 0.106 | [13] -0.234 | [14] -0.079

FAM199X (UniProt Q6PEV8)
inactive: [12] 0.024

(continued)

FAM13A (UniProt O94988)
inactive: [4] -0.155 | IRAK-1-4 Inhibitor I 0.177 | ralimetinib -0.022 | [9] 0.102 | [11] -0.093 | [12] 0.051 | [13] 0.234

EVA1B (UniProt Q9NVM1)
inactive: erlotinib 0.15 | [15] 0.127 | [4] -0.291 | IRAK-1-4 Inhibitor I 0.217 | ralimetinib -0.036 | [9] -0.078 | [16] -0.08 | [11] -0.317 | [12] 0.028 | [13] 0.122
